PubChem BioAssay AID652243 – Drosophila RNAi Screening Center | 2013

- Aim: 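Fly genes required for human androgen receptor driven transcription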 (primary screen)
- Cell system: Drosophila S2R+ cells
- Knock-down reagent: long dsRNA against Drosophila genes
- Timing: 72 h (48 h, then 24 h hormone)
- Conditions: synthetic androgen R1881 at 10 nM for 24 h
- Detection: 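Firefly light from an androgen-responsive reporter and Renilla control light per well, raw and unnormalised, for each of two replicates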
- Direction: firefly reporter light: higher = more light from androgen-responsive reporter; Renilla control light: higher = more constitutive control signal (cell number, transfection)
- Hit rule: 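Across duplicate plates, a knock-down whose log firefly/Renilla ratio shifted a set fold down or up from the GFP/LacZ control mean was a hit; the downward cut appears as both 1.5 and 3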
- Calls: active = hit: reporter lowered or raised; inactive = no hit
The screen tested about 24,000 reagents; below is a random part of those with a known target gene and a result. Of all reagents, 246 (1%) got an active call. 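Plates not normalised; calls are printed but the firefly/Renilla ratio behind them is not deposited; fold cut for lowering reported inconsistently.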 The raw values are shown without normalisation. A number with no mark means an inactive call. Reagent sequences are not shown. The record does not give: the amount of reagent.

With knock-down of alien [DRSC03482], the screen gave firefly reporter light, replicate 1 = 1.04e6; firefly reporter light, replicate 2 = 4.14e5; Renilla control light, replicate 1 = 2.16e6; Renilla control light, replicate 2 = 1.03e6. After knock-down of alphaKap4 [DRSC09823], the record shows firefly reporter light, replicate 1 = 1.24e5; firefly reporter light, replicate 2 = 96323; Renilla control light, replicate 1 = 1.36e6; Renilla control light, replicate 2 = 1.02e6. Spn85F [DRSC14545] showed firefly reporter light, replicate 1 = 5.01e5; firefly reporter light, replicate 2 = 5.16e5; Renilla control light, replicate 1 = 3.02e6; Renilla control light, replicate 2 = 3.95e6. For Galphao [DRSC07430], the entry reads firefly reporter light, replicate 1 = 1.14e6; firefly reporter light, replicate 2 = 1.07e6; Renilla control light, replicate 1 = 2.51e6; Renilla control light, replicate 2 = 2.54e6. For Galphao [DRSC29710] the deposit lists firefly reporter light, replicate 1 = 5.04e5; firefly reporter light, replicate 2 = 4.60e5; Renilla control light, replicate 1 = 1.47e6; Renilla control light, replicate 2 = 1.26e6. After knock-down of lark [DRSC11362] the results were firefly reporter light, replicate 1 = 7.67e5; firefly reporter light, replicate 2 = 6.44e5; Renilla control light, replicate 1 = 1.43e6; Renilla control light, replicate 2 = 1.14e6.

lark [DRSC25108] scored firefly reporter light, replicate 1 = 4.29e5; firefly reporter light, replicate 2 = 2.76e5; Renilla control light, replicate 1 = 3.98e5; Renilla control light, replicate 2 = 4.21e5. After knock-down of dao [DRSC01960], the screen gave firefly reporter light, replicate 1 = 1.11e5; firefly reporter light, replicate 2 = 1.82e5; Renilla control light, replicate 1 = 1.96e6; Renilla control light, replicate 2 = 2.29e6. Against dao [DRSC26014], the values are firefly reporter light, replicate 1 = 3.86e5; firefly reporter light, replicate 2 = 2.62e5; Renilla control light, replicate 1 = 8.05e5; Renilla control light, replicate 2 = 5.79e5. Depletion of CG3748 [DRSC02716] gave: firefly reporter light, replicate 1 = 95853; firefly reporter light, replicate 2 = 1.19e5; Renilla control light, replicate 1 = 1.03e6; Renilla control light, replicate 2 = 1.07e6. CG3748 [DRSC29984] scored firefly reporter light, replicate 1 = 3.13e5; firefly reporter light, replicate 2 = 2.64e5; Renilla control light, replicate 1 = 1.27e6; Renilla control light, replicate 2 = 1.44e6. For CG3748 [DRSC39015], the values are firefly reporter light, replicate 1 = 4.09e5; firefly reporter light, replicate 2 = 3.97e5; Renilla control light, replicate 1 = 1.41e6; Renilla control light, replicate 2 = 1.41e6.

Silencing of RanGAP [DRSC22003] resulted in: firefly reporter light, replicate 1 = 7.76e5; firefly reporter light, replicate 2 = 6.91e5; Renilla control light, replicate 1 = 3.61e5; Renilla control light, replicate 2 = 2.55e5. Silencing of RanGAP [DRSC29400] resulted in: firefly reporter light, replicate 1 = 4.64e5; firefly reporter light, replicate 2 = 5.13e5; Renilla control light, replicate 1 = 1.05e6; Renilla control light, replicate 2 = 1.05e6. Silencing of slam [DRSC03240] came out at: firefly reporter light, replicate 1 = 2.11e5; firefly reporter light, replicate 2 = 1.61e5; Renilla control light, replicate 1 = 1.36e6; Renilla control light, replicate 2 = 1.07e6. CG7300 [DRSC03044] showed firefly reporter light, replicate 1 = 1.25e6; firefly reporter light, replicate 2 = 1.51e6; Renilla control light, replicate 1 = 2.44e6; Renilla control light, replicate 2 = 2.03e6. CG7300 [DRSC28239] gave firefly reporter light, replicate 1 = 4.30e5; firefly reporter light, replicate 2 = 5.12e5; Renilla control light, replicate 1 = 8.96e5; Renilla control light, replicate 2 = 1.64e6. For C15 [DRSC13495], the values are firefly reporter light, replicate 1 = 2.06e5; firefly reporter light, replicate 2 = 1.67e5; Renilla control light, replicate 1 = 5.57e5; Renilla control light, replicate 2 = 5.22e5.

After knock-down of tho2 [DRSC00646], the record shows firefly reporter light, replicate 1 = 6.75e5; firefly reporter light, replicate 2 = 1.06e6; Renilla control light, replicate 1 = 1.50e6; Renilla control light, replicate 2 = 1.84e6. After knock-down of tho2 [DRSC28626], the screen gave firefly reporter light, replicate 1 = 3.04e5; firefly reporter light, replicate 2 = 2.85e5; Renilla control light, replicate 1 = 8.97e5; Renilla control light, replicate 2 = 8.70e5. Knock-down of CG9067 [DRSC07328] resulted in: firefly reporter light, replicate 1 = 3.02e5; firefly reporter light, replicate 2 = 2.43e5; Renilla control light, replicate 1 = 2.36e6; Renilla control light, replicate 2 = 1.70e6.

Records listed so far whose gene name starts with T or t:
tho2 [DRSC00646] — firefly reporter light, replicate 1: 6.75e5; firefly reporter light, replicate 2: 1.06e6; Renilla control light, replicate 1: 1.50e6; Renilla control light, replicate 2: 1.84e6
tho2 [DRSC28626] — firefly reporter light, replicate 1: 3.04e5; firefly reporter light, replicate 2: 2.85e5; Renilla control light, replicate 1: 8.97e5; Renilla control light, replicate 2: 8.70e5
